This is an account of results in article doi:10.1101/2024.04.25.591189.

These are yes or no findings as the source states them, for the method shown. In cells and extracts the contact can be indirect. Some binding calls cover weakened binding; strength is not graded here. Where a sequence is shown, tags or fusion partners need not be part of it.

The assay concerns the target T1, Mei5 (wild-type, S. cerevisiae SK1) (S. cerevisiae (endogenous in SK1 diploid cells)) (UniProt P32489).
T1 sequence: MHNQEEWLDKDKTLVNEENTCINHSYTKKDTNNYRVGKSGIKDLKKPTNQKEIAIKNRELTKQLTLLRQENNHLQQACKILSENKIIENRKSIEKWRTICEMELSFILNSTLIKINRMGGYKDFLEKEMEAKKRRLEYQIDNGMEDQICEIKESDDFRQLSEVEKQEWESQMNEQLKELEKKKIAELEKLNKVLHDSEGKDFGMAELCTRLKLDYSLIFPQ
As to the kind of experiment: co-IP.

B1: Sae3-Flag (protein, UniProt P89114 1-91)
chain: MNYLETQLNKKQKQIQEYESMNGNLIKMFEQLSKEKKNDETPKKISSTYIKELKEYNELRDAGLRLAQIIADEKQCKIKDVFEEIGYSMKD
For B1, the binding entry is “binds”.
